Consider 78 molecules from publication PMC12040169 (PLOS Biology, 2025).

The other results are listed elsewhere or left out.

This assay relates to T1, CTL2-GFP (C. trachomatis L2/434/Bu, GFP-expressing).
T1 construct: L2/434/Bu, GFP-expressing
Further details: species or system HeLa; Intracellular C. trachomatis growth in HeLa cells, bulk GFP fluorescence relative to DMSO. To be noted: bulk GFP, single well; 28.5 h, 10 µM; inhibitor.
`O=C(CCn1c(C(F)(F)F)cc2cccnc21)N1CCC(O)CC1` [CBK284887]: the “% of control remaining” value is 140.757%. For `CCCN1CCN(c2ncc(CNS(=O)(=O)c3ccc(Cl)cc3)cn2)CC1` [CBK010261], the “% of control remaining” value was determined as 108.007%. Regarding `COc1ccc(Cl)cc1NC(=O)Nc1ccc(C(=O)N2CCOCC2)cc1` [CBK266958], the “% of control remaining” value was determined as 182.736%. Then `CCN(CC)C(=O)c1sccc1NS(=O)(=O)Cc1ccccc1` [CBK050393], with 82.6065%; and `CCOC(=O)c1ccccc1NS(=O)(=O)c1ccc(C(F)(F)F)cc1[N+](=O)[O-]` [CBK050584], with 97.9973%.

With `NS(=O)(=O)c1ccc(/N=C/c2cccc(O)c2O)cc1` [CBK261533], the “% of control remaining” value was 106.188%. In the case of `Cc1cc(=O)n(CC(=O)NCCn2ccnc2)c2ccccc12` [CBK281583], the “% of control remaining” value is on record as 103.34%. On to `COc1cc(C2C(C#N)=C(N)OC3=C2C(=O)CC(c2ccccc2)C3)cc(Br)c1O` (stereo not drawn) [CBK261587], for which the “% of control remaining” value was found to be 100%.

With `Cc1cccc(N(CC(=O)Nc2ccc3c(c2)oc2ccccc23)S(=O)(=O)c2ccccc2)c1` [CBK264813], the “% of control remaining” value is listed as 133.373%. Then `COc1ccc(NC(=O)c2ccc(-c3nnn[nH]3)cc2)cc1OC` [CBK295138], with 146.587%. Then `Fc1ccccc1C1CCN(c2cncc(N3CCNCC3)n2)CC1` [CBK172236G], with 120.882%; and `CCn1cc(CN(CCN(C)C)Cc2ccc(C)o2)c(C)n1` [CBK282845], with 135.011%. Take `O=C(Nc1ncc(-c2ccccc2)s1)c1cccc([N+](=O)[O-])c1` [CBK157055]: the “% of control remaining” value is on record as 40.5529%. Then `CC(C)(C)c1ccc(-c2cc3ncccc3nc2N)cc1` [CBK081199], with 115.88%; and `O=C(Cc1cccc2ccccc12)NC(=S)Nc1ccc(S(=O)(=O)N2CCCCC2)cc1` [CBK266283], with 104.708%. The same measure for `Cc1nc2c(OCc3ccccc3)cccn2c1N(C)C(=O)C1CCCCC1` [CBK147884]: 109.633%; for `O=C(O)c1cccc(-c2ccc(/C=N/NC(=O)c3sc4ccccc4c3Cl)o2)c1` [CBK263863]: 140.435%; for `COC(=O)c1ccc(-c2ccc3[nH]ccc3c2)nc1` [CBK160174T]: 116.048%.

Regarding `Cc1nccn1CCNC(=O)CCc1nc2ccccc2n1C` [CBK281978], the “% of control remaining” value is listed as 115.234%. Then `c1ccc(CNc2nc(-c3ccco3)cn3ccnc23)cc1` [CBK037955], with 187.644%; and `CN1CCC2(CC1)CC(=O)c1cc(-c3ccc(C(=O)N(C)CCC#N)cc3)ccc1O2` [CBK156518], with 100.364%.

Consider `CSc1ncc(Cl)c(C(=O)Nc2sc3c(c2C(=O)NCc2cccnc2)CCC3)n1` [CBK268710], for which the “% of control remaining” value was 112.53%.

Take `O=C1NC(=S)S/C1=C\c1cn(-c2ccccc2)nc1-c1ccc(OCc2ccccc2)cc1` [CBK265496]: the “% of control remaining” value is listed as 139.451%. `CC(=O)Nc1cc(I)cc(C(=O)O)c1` [CBK026452G]: the “% of control remaining” value is 112.548%. Then `COc1ccc2c(c1)CC1(CCC(NCCCC(=O)c3ccc(F)cc3)CC1)C2` (stereo not drawn) [CBK016054C], with 100%; and `CCc1nc2ccc(C(=O)N(C)Cc3ccccc3)cn2c1N(C=O)CC` [CBK145936], with 121.631%. As for `CCCCNC(=O)c1ccc2nc(CC)c(N(C)C(=O)C3CCCCC3)n2c1` [CBK145791], the “% of control remaining” value came to 100%. Consider `Cc1ccc(C(NC(=O)C2CCN(Cc3ccc(Cl)cc3)CC2)c2ccccn2)cc1` (stereo not drawn) [CBK148007], for which the “% of control remaining” value is 125.183%. The same measure for `CCCC/C=C/c1cncc(N2CCN(Cc3ccccn3)CC2)n1` [CBK066096]: 104.139%. As to `CCOC(=O)C1(C2CCCCC2)CCN(C(=O)c2cc(C)[nH]n2)CC1` [CBK137100], the “% of control remaining” value is 95.0358%. As for `COCc1nc(NCCCn2c(C)cccc2=O)cc(C2CCOC2)n1` (stereo not drawn) [CBK306845], the “% of control remaining” value was 80.3412%. Then `Cc1ccc(Cn2cnc3c(cnn3-c3ccc(C)c(C)c3)c2=O)cc1` [CBK287540], with 144.733%; and `CCC(NC(=O)c1cc(CC(C)C)nn1CC)c1cn2cccnc2n1` (stereo not drawn) [CBK307505], with 136.539%; and `O=C(CCc1nc2ccccc2s1)Nc1nc2ccccc2[nH]1` [CBK287988], with 109.44%. For `COc1ccc(C(=O)N2CCC3(CCCN(C(=O)CN4C(=O)CSC4=O)C3)C2)cc1OC` (stereo not drawn) [CBK137088], the “% of control remaining” value is 85.3313%.

For the molecule `O=C(Cc1c(F)cccc1F)Nc1ccc2[nH]ccc2c1` [CBK144712], the “% of control remaining” value worked out at 159.064%. As for `Cc1nc2cc(/N=C/c3c[nH]c4ccccc34)ccc2n1C` [CBK262085], the “% of control remaining” value is listed as 100%.

`Cn1ccnc1CN(CCCn1ccnc1)Cc1ccccc1F` [CBK283022]: the “% of control remaining” value worked out at 80.676%.

Consider `O=C(Cn1c(-c2cccs2)cc2cccnc21)NC1CC1` [CBK282552], for which the “% of control remaining” value is on record as 125.742%. The same measure for `c1ccc(C(NCc2nnc(-c3ccco3)o2)C2CCC2)cc1` (stereo not drawn) [CBK305818]: 160.613%; for `Cc1c(C)n(Cc2ccco2)c2ncnc(NCCC(=O)O)c12` [CBK307564]: 131.76%; for `O=C1Nc2ccc(-c3cccc(C(F)(F)F)c3)cc2C(=O)N2CCN(C(=O)C3CC3)C[C@H]12` [CBK289585]: 125.976%.

As to `CN(C)C(=O)c1ccc(-c2ccc(OC3CCN(C(=O)CCc4cccnc4)CC3)nc2)cc1` [CBK155049], the “% of control remaining” value came to 124.855%.

For the molecule `CC(C)[C@H](CO)Nc1cncc(-c2cccc(N(C)C)c2)n1` [CBK065547], the “% of control remaining” value is given as 193.879%.

On to `CC(C)(C)C(=O)c1cnc2sc3ccccc3n12` [CBK016512], for which the “% of control remaining” value is given as 142.262%.

`CN1CCC(N(C)C(=O)NCc2c(Cl)cccc2Cl)C1` (stereo not drawn) [CBK156014]: the “% of control remaining” value was 193.035%.

As for `Cc1sc2nc(SCCCC(=O)NCCO)nc(N)c2c1C` [CBK264482], the “% of control remaining” value worked out at 113.099%.

Take `CCOC(=O)C(NCc1nc(-c2cccc(C(F)(F)F)c2)no1)C(C)C` (stereo not drawn) [CBK305445]: the “% of control remaining” value came to 119.253%. Then `CC(=O)Nc1ccc(S(=O)(=O)NC2(C(F)(F)F)C(=O)Nc3c2c(=O)[nH]c(=S)n3Cc2ccco2)cc1` (stereo not drawn) [CBK268395], with 137.739%.

Turning to `O=C(O)C1(Cc2cccc(-c3cccs3)c2)CCCNC1` (stereo not drawn) [CBK281688], the “% of control remaining” value is 155.041%. Take `CCc1ccc2nc3c(cc2c1)CNCCO3` [CBK281940]: the “% of control remaining” value is given as 108.893%. The same measure for `Cc1ccc(CNC(=O)CSc2nnc(-c3ccncc3)n2-c2ccccc2)cc1` [CBK266654]: 155.56%; for `COc1ccccc1CN(C)C(C)C(=O)Nc1ccc(S(N)(=O)=O)cc1` (stereo not drawn) [CBK305839]: 145.963%. Then `COc1ccc(-c2cnc(N)c(NC3CCOCC3)n2)c(OC)c1OC` [CBK063844], with 114.9%; and `O=C(NCCNc1cnccn1)c1ccc(Br)cc1F` [CBK305639], with 155.032%. Then `CC(=O)c1ccc(S(=O)(=O)NCC2CC2)cc1` [CBK044440], with 162.012%; and `Cc1nc2ccc(NC(=O)CC3CCN(S(=O)(=O)c4cccc(F)c4)CC3)cc2[nH]1` [CBK285903], with 108.46%.

Regarding `O=C(CCc1ccccc1)N1CCC(c2n[nH]c3ncccc23)CC1` [CBK284906], the “% of control remaining” value is on record as 139.973%. The same measure for `CCN(Cc1ccc(C#N)cc1F)C(=O)C(NC(=O)OC)C(C)C` (stereo not drawn) [CBK306372]: 127.293%; for `CCN(Cc1ccncc1)C(CC1CCCCC1)c1ccccc1` (stereo not drawn) [CBK061639T]: 79.5929%; for `Cc1ccc(C(=O)CCC(=O)N2CCCC2c2ccc(F)cc2)cc1` (stereo not drawn) [CBK297885]: 128.522%.

On to `Nc1ncc(-c2ccc(N3CCOCC3)cc2)nc1N1CCN(CCO)CC1` [CBK063394], for which the “% of control remaining” value was determined as 134.797%. Then `O=C(Cc1c(O)c2ccccc2[nH]c1=O)NCc1ccc(Cl)cc1` [CBK160317], with 104.894%. The same measure for `CCc1nn(CC(=O)N2CCC(C)CC2)c(=O)c2cc3occc3n12` [CBK283675]: 169.243%; for `Cc1ccc(-c2cc(C(=O)Nc3ccc(S(N)(=O)=O)cc3)c3ccc(Cl)c(C)c3n2)cc1` [CBK267745]: 99.8477%; for `COc1ccc(NCc2cc3sccc3n2C)cc1OC` [CBK283486]: 130.213%. As to `O=C(C1CCN(Cc2ccc(F)cc2)CC1)N1CCN(C/C=C/c2ccccc2)CC1` [CBK264325G], the “% of control remaining” value stood at 111.152%. Then `Cc1ccc(CN2CCCN(C(=O)CCn3cnc4c(cnn4C)c3=O)CC2)cc1` [CBK297793], with 152.422%; and `Cc1noc(C)c1C(=O)Nc1sc2c(c1C(=O)NCc1ccco1)CCCCCC2` [CBK268112], with 148.911%. In the case of `Cc1cnn(C2CCN(C(=O)NC(C)C3OCCc4sccc43)C2)c1` (stereo not drawn) [CBK304159], the “% of control remaining” value worked out at 125.307%. As to `Cc1nnc(SCCOc2ccc(Cl)c(C)c2)s1` [CBK026160], the “% of control remaining” value was 118.579%. Then `Cc1nccn1CC1(O)CCN(CC(C)c2ccccc2)CC1` (stereo not drawn) [CBK284954], with 136.615%; and `Cc1noc(C2(O)CCN(Cc3cccc(Cl)c3F)C2)n1` (stereo not drawn) [CBK304748], with 123.869%. The same measure for `CCn1c(=O)n(CC(C)(C)O)c2cc(S(=O)(=O)N(C)C)ccc21` [CBK304893]: 129.046%. Then `O=C(CCN1C(=O)COc2ccccc21)Nc1ccnn1Cc1ccccc1Br` [CBK296740], with 118.809%. Turning to `Cc1cccn2cc(CCNC(=O)CN(C)C3CCSC3)nc12` (stereo not drawn) [CBK304027], the “% of control remaining” value is given as 103.659%. With `O=C1CNC(=O)C2(C/C=C/C[C@H]3COCC[C@@H]3N1)CCN(C(=O)c1cccc(Cl)c1)CC2` [CBK292066], the “% of control remaining” value came to 131.839%.

Turning to `CC(C)NC(=O)NC[C@H]1C[C@@H]2CCN1C[C@@H]2c1cc(C2CCCCC2)nn1C` [CBK289107], the “% of control remaining” value is given as 108.699%.
